Measurements published in PMC4488936.
Results are given in words; binding and its absence hold for the method and conditions named. Binding seen in cells or lysates may run through a third protein. Some results given as binding are weak or reduced against the parent protein; the word gives no strength.

Amino acid sequences for entries named in this document (tags omitted).
UniProt P25439: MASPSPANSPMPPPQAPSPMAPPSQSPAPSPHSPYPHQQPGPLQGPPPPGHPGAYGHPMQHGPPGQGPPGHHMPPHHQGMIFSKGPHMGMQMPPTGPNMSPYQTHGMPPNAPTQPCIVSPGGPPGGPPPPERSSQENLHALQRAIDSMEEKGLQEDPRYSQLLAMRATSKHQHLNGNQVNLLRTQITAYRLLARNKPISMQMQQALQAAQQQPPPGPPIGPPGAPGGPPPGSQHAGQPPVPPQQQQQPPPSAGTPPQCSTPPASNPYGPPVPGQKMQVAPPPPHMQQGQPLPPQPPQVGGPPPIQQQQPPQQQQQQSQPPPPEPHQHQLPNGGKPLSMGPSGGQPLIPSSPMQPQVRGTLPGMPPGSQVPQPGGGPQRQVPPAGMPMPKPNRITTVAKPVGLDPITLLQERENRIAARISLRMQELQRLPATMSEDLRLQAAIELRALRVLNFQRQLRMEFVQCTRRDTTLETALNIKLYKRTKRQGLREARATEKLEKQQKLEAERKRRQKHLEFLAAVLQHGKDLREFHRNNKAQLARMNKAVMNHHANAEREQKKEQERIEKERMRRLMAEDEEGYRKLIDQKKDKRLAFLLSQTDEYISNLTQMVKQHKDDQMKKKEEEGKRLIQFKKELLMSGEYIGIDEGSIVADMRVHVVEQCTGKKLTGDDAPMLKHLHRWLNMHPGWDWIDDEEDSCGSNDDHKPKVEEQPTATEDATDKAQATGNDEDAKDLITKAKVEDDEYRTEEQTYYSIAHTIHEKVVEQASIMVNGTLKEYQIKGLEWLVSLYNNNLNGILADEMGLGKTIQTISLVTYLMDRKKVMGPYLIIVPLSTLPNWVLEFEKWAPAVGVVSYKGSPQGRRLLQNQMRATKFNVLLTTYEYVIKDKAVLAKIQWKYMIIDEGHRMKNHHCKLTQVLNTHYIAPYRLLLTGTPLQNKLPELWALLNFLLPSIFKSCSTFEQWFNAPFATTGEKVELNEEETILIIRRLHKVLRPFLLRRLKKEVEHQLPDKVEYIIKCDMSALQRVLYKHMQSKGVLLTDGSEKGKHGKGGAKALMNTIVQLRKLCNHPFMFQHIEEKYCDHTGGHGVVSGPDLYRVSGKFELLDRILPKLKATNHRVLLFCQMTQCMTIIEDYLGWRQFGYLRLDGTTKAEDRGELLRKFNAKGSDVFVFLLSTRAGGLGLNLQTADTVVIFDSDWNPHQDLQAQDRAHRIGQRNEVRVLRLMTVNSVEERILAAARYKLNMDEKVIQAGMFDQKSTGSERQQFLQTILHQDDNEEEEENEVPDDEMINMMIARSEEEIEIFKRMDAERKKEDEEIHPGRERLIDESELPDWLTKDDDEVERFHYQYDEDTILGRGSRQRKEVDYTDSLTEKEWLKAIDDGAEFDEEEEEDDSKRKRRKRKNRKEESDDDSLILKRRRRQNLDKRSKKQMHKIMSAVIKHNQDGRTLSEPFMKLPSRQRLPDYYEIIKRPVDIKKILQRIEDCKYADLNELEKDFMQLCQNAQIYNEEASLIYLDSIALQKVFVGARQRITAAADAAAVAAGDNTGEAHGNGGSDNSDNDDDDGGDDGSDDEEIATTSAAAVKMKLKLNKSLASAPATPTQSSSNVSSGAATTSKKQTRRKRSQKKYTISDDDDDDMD
UniProt O61735: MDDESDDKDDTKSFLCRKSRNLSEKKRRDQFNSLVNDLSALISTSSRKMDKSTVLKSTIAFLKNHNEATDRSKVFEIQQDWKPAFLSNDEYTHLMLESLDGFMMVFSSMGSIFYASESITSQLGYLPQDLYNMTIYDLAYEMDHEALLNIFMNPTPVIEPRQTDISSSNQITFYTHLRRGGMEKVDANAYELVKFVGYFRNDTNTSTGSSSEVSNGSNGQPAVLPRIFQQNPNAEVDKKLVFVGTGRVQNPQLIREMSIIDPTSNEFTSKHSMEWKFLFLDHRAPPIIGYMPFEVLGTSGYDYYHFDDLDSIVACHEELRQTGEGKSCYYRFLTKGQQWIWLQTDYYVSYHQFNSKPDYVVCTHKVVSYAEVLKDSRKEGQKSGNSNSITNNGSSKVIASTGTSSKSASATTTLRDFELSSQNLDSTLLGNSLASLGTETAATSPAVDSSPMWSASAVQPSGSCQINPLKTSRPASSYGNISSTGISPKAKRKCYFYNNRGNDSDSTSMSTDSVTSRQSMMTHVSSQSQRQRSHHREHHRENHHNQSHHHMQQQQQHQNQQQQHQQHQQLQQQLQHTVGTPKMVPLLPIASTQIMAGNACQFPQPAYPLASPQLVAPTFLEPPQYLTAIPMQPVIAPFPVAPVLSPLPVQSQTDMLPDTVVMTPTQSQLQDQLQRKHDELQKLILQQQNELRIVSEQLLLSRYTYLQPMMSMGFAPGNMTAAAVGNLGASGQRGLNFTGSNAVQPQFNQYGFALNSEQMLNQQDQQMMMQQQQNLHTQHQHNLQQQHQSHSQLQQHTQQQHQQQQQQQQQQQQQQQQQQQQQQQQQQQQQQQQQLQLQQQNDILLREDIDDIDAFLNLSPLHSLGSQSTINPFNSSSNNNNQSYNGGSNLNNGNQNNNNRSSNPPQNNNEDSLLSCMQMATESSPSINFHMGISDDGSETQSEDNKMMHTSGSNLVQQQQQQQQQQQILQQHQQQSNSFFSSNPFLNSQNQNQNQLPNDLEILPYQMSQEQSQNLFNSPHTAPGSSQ

B1: TIMELESS (TIM) with 3HA (pAc-tim-3HA) (protein, UniProt P49021 1-1398)
chain: MDWLLATPQLYSAFSSLGCLEGDTYVVNPNALAILEEINYKLTYEDQTLRTFRRAIGFGQNVRSDLIPLLENAKDDAVLESVIRILVNLTVPVECLFSVDVMYRTDVGRHTIFELNKLLYTSKEAFTEARSTKSVVEYMKHILESDPKLSPHKCDQINNCLLLLRNILHIPETHAHCVMPMMQSMPHGISMQNTILWNLFIQSIDKLLLYLMTCPQRAFWGVTMVQLIALIYKDQHVSTLQKLLSLWFEASLSESSEDNESNTSPPKQGSGDSSPMLTSDPTSDSSDNGSNGRGMGGGMREGTAATLQEVSRKGQEYQNAMARVPADKPDGSEEASDMTGNDSEQPGSPEQSQPAGESMDDGDYEDQRHRQLNEHGEEDEDEDEVEEEEYLQLGPASEPLNLTQQPADKVNNTTNPTSSAPQGCLGNEPFKPPPPLPVRASTSAHAQMQKFNESSYASHVSAVKLGQKSPHAGQLQLTKGKCCPQKRECPSSQSELSDCGYGTQVENQESISTSSNDDDGPQGKPQHQKPPCNTKPRNKPRTIMSPMDKKELRRKKLVKRSKSSLINMKGLVQHTPTDDDISNLLKEFTVDFLLKGYSYLVEELHMQLLSNAKVPIDTSHFFWLVTYFLKFAAQLELDMEHIDTILTYDVLSYLTYEGVSLCEQLELNARQEGSDLKPYLRRMHLVVTAIREFLQAIDTYNKVTHLNEDDKAHLRQLQLQISEMSDLRCLFVLLLRRFNPSIHSKQYLQDLVVTNHILLLILDSSAKLGGCQTIRLSEHITQFATLEVMHYYGILLEDFNNNGEFVNDCIFTMMHHIGGDLGQIGVLFQPIILKTYSRIWEADYELCDDWSDLIEYVIHKFMNTPPKSPLTIPTTSLTEMTKEHNQEHTVCSWSQEEMDTLYWYYVQSKKNNDIVGKIVKLFSNNGNKLKTRISIIQQLLQQDIITLLEYDDLMKFEDAEYQRTLLTTPTSATTESGIEIKECAYGKPSDDVQILLDLIIKENKAQHLLWLQRILIECCFVKLTLRSGLKVPEGDHIMEPVAYHCICKQKSIPVVQWNNEQSTTMLYQPFVLLLHKLGIQLPADAGSIFARIPDYWTPETMYGLAKKLGPLDKLNLKFDASELEDATASSPSRYHHTGPRNSLSSVSSLDVDLGDTEELALIPEVDAAVEKAHAMASTPSPSEIFAVPKTKHCNSIIRYTPDPTPPVPNWLQLVMRSKCNHRTGPSGDPSDCIGSSSTTVDDEGFGKSISAATSQAASTSMSTVNPTTTLSLNMLNTFMGSHNENSSSSGCGGTVSSLSMVALMSTGAAGGGGNTSGLEMDVDASMKSSFERLEVNGSHFSRANNLDQEYSAMVASVYEKEKELNSDNVSLASDLTRMYVSDEDDRLERTEIRVPHYH
B2: TIMELESS (TIM), endogenous in fly heads (protein, UniProt P49021 1-1398)
chain: MDWLLATPQLYSAFSSLGCLEGDTYVVNPNALAILEEINYKLTYEDQTLRTFRRAIGFGQNVRSDLIPLLENAKDDAVLESVIRILVNLTVPVECLFSVDVMYRTDVGRHTIFELNKLLYTSKEAFTEARSTKSVVEYMKHILESDPKLSPHKCDQINNCLLLLRNILHIPETHAHCVMPMMQSMPHGISMQNTILWNLFIQSIDKLLLYLMTCPQRAFWGVTMVQLIALIYKDQHVSTLQKLLSLWFEASLSESSEDNESNTSPPKQGSGDSSPMLTSDPTSDSSDNGSNGRGMGGGMREGTAATLQEVSRKGQEYQNAMARVPADKPDGSEEASDMTGNDSEQPGSPEQSQPAGESMDDGDYEDQRHRQLNEHGEEDEDEDEVEEEEYLQLGPASEPLNLTQQPADKVNNTTNPTSSAPQGCLGNEPFKPPPPLPVRASTSAHAQMQKFNESSYASHVSAVKLGQKSPHAGQLQLTKGKCCPQKRECPSSQSELSDCGYGTQVENQESISTSSNDDDGPQGKPQHQKPPCNTKPRNKPRTIMSPMDKKELRRKKLVKRSKSSLINMKGLVQHTPTDDDISNLLKEFTVDFLLKGYSYLVEELHMQLLSNAKVPIDTSHFFWLVTYFLKFAAQLELDMEHIDTILTYDVLSYLTYEGVSLCEQLELNARQEGSDLKPYLRRMHLVVTAIREFLQAIDTYNKVTHLNEDDKAHLRQLQLQISEMSDLRCLFVLLLRRFNPSIHSKQYLQDLVVTNHILLLILDSSAKLGGCQTIRLSEHITQFATLEVMHYYGILLEDFNNNGEFVNDCIFTMMHHIGGDLGQIGVLFQPIILKTYSRIWEADYELCDDWSDLIEYVIHKFMNTPPKSPLTIPTTSLTEMTKEHNQEHTVCSWSQEEMDTLYWYYVQSKKNNDIVGKIVKLFSNNGNKLKTRISIIQQLLQQDIITLLEYDDLMKFEDAEYQRTLLTTPTSATTESGIEIKECAYGKPSDDVQILLDLIIKENKAQHLLWLQRILIECCFVKLTLRSGLKVPEGDHIMEPVAYHCICKQKSIPVVQWNNEQSTTMLYQPFVLLLHKLGIQLPADAGSIFARIPDYWTPETMYGLAKKLGPLDKLNLKFDASELEDATASSPSRYHHTGPRNSLSSVSSLDVDLGDTEELALIPEVDAAVEKAHAMASTPSPSEIFAVPKTKHCNSIIRYTPDPTPPVPNWLQLVMRSKCNHRTGPSGDPSDCIGSSSTTVDDEGFGKSISAATSQAASTSMSTVNPTTTLSLNMLNTFMGSHNENSSSSGCGGTVSSLSMVALMSTGAAGGGGNTSGLEMDVDASMKSSFERLEVNGSHFSRANNLDQEYSAMVASVYEKEKELNSDNVSLASDLTRMYVSDEDDRLERTEIRVPHYH

Experiments:
[1] = biological target: Brahma (BRM) with C-terminal 3XFLAG-6XHis (pAc-brm-3XFLAG-6XHis) (Drosophila melanogaster) (UniProt P25439); assay: co-IP; S2 cells co-transfected with BRM-3XFLAG-6XHis and CLK-V5-His, TIM-3HA or PER-V5-His; M-RIPA extract; reciprocal IPs with anti-FLAG M2 gel, anti-V5 or anti-HA agarose, 4 h at 4 C; washes in M-RIPA with 300 mM NaCl; western blot
[2] = biological target: BRM carrying a 3X FLAG epitope tag, transgene UAS-BRM^RFL (3XFLAG-6XHis-brm in pUAST) (Drosophila melanogaster) (UniProt P25439); assay: co-IP; head extracts (RBS buffer, sonicated, pre-cleared) of flies expressing FLAG-tagged BRM in tim-expressing cells, collected at time points (ZT) of an LD cycle; IP with anti-FLAG, GammaBind Plus sepharose, washes in RBS buffer; western blot

Molecule	binding [1]	binding [2]
CLOCK (CLK) with V5-His (pAc-clk-V5-His) (from UniProt O61735 1-1027)	binds	–
CLOCK (CLK), endogenous in fly heads (from UniProt O61735 1-1027)	–	binds
B1	binds	–
B2	–	binds
